Test results reported in US20220119513A1.
Changes are numbered by the printed parent chain. In names and notes the source's numbering stands. These are yes or no findings as the source states them, for the method shown. Some entries that bind do so weakly or less than the wild type. One block for each binder: values may come before it.

Amino acid sequences for entries named in this document (tags omitted). A change or cut given only in a name is not applied to a line headed by its entry.
UniProt P01137: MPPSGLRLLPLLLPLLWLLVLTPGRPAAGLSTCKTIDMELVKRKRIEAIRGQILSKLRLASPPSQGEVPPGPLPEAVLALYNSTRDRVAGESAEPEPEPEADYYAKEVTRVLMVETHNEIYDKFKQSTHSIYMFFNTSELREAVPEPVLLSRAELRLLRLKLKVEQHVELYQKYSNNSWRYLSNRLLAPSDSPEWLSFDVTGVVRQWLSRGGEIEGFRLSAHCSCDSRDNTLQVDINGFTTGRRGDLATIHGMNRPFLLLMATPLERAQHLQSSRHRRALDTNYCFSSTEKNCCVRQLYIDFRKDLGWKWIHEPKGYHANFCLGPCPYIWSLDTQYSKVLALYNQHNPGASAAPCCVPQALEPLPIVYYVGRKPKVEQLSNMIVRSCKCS

Columns and labels:
[1] = target: human TGFβ1 (PeproTech) (human) (UniProt P01137); assay: HDX-MS epitope mapping, TGFβ1 with and without mAb
feline TGFβ1 (feline) = feline TGFβ1 (feline) (UniProt P01137); assay: SPR
feline TGFβ2 (feline) = target: T1, feline TGFβ2 (feline); assay: SPR
T1 sequence: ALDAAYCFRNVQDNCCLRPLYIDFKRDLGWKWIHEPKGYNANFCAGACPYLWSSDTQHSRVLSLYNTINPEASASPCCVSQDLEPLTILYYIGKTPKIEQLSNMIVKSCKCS

feline TGFβ3 (feline) = target: T2, feline TGFβ3 (feline); assay: SPR
T2 sequence: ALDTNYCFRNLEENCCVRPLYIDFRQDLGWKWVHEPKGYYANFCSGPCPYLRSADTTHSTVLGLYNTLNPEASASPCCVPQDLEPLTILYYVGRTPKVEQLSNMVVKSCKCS

canine TGFβ3 (canine) = assay: SPR, TGFβ on chip
[2] = target: mature TGFβ1 homodimer (co-crystal) (Homo sapiens (Human)) (UniProt P01137); assay: X-ray co-crystal structure

- binding [1]: binds
B1: mHcLb (antibody, V domains shown)
VH: QVQLEESGPELVRPGASVKLSCKASGYIFITYWMNWVKQRPGQGLEWIGQIFPASGSTNYNEMFEGKATLTVDTSSSTAYMQLSSLTSEDSAVYYCARGDGNYALDAMDYWGQGT
VL: DIVLTQTPASLAVSLGQRATISCRASESVDSYGNSFMHWYQQKSGQPPKLLIYLASNLESGVPARFSGSGSRTDFTLTIDPVEADDAATYYCQQNNEDPLTFGAGTK

- binding (feline TGFβ1 (feline)): binds
- binding (feline TGFβ2 (feline)): binds
- binding (feline TGFβ3 (feline)): binds
B2: fel04H09-17 (antibody, V domains shown)
VH: QVLLVQSGAEVRRPGASVKIFCKASGYSFTSSWMNWLRQAPAQGFEWMGQIYPGDGDTNYNGKFKGRLTLTADTSTDTAYMELSSLRSADTAVYYCARHYDGSTDYWGHGTIVTVSS
VL: AITMTQSPGSLAGSPGQQVTMNCRASENIYSNLAWYQQKPGQHPKLLIYAATNLADGVPDRFSGSGSGTDFTLTISNLQAEDVASYYCQHFWGTPYTFGGGT

- binding (feline TGFβ1 (feline)): binds
- binding (feline TGFβ2 (feline)): binds
- binding (feline TGFβ3 (feline)): binds
B7: fel04H09-22 (antibody, V domains shown)
VH: B2 VH with R13K, G15E, L37V, D77N, A89T, T91M, H109Q, T111A, I112L
VL: EIQMTQSPSSLSASPGDRVTITCRASENIYSNLAWYQQKPGKVPKLLIYAATNLADGVPSRFSGSGSGTDFTLTISSLEPEDAATYYCQHFWGTPYTFGGGT

- binding (canine TGFβ3 (canine)): binds
B14: Can04H09 VH3/VL4 (antibody, V domains shown)
VH: EVQLVQSAAEVKKPGASVKVSCKTSGYTFTSSWMNWVQQAPGAGLDWMGQIYPGDGDTNYNGKFKGRVTLTADTSTSTAYMELSSLRAEDTAVYYCARHYDGSTDYWGQGTLVTVSS
VL: EIVMTQSPASLSLSQGEKVTITCRASENIYSNLAWYQQRPGQAPKLLIYAATNLADGVPSRFSGSGSGTDFSLTISSLEPEDVAVYYCQHFWGTPYTFGQGTK

- binding (canine TGFβ3 (canine)): binds
B15: Can04H09 VH1/VL4 (antibody, V domains shown)
VH: B14 VH with A8G, T30I, Q38R, E89G, T91I
VL: B14 VL

- binding (canine TGFβ3 (canine)): binds
B16: Can04H09 VH3/VL3 (antibody, V domains shown)
VH: B14 VH
VL: B14 VL with G16E, R39K, L73F

More lines, now with the values behind:

B3: fel04H09-19 (antibody, V domains shown)
VH: B2 VH
VL: B7 VL
- binding (feline TGFβ1 (feline)): binds
- binding (feline TGFβ2 (feline)): binds
- binding (feline TGFβ3 (feline)): binds

B4: fel04H09-20 (antibody, V domains shown)
VH: B2 VH with R13K, G15E, L37V, D77N, A89T, T91M, H109Q, T111A, I112L
VL: B2 VL
- binding (feline TGFβ1 (feline)): binds
- binding (feline TGFβ2 (feline)): binds
- binding (feline TGFβ3 (feline)): binds

B5: fel04H09-25 (antibody, V domains shown)
VH: B2 VH with R13K, A42E, F45L, D77N, V93M, H109Q, T111A, I112L
VL: B7 VL
- binding (feline TGFβ1 (feline)): binds
- binding (feline TGFβ2 (feline)): binds
- binding (feline TGFβ3 (feline)): binds

B6: fel04H09-18 (antibody, V domains shown)
VH: B2 VH
VL: DIVMTQTPLSLPVTPGEPASISCRASENIYSNLAWYLQKPGQSPRLLIYAATNLADGVPSRFSGSGSGTDFTLRISSVEADDVGVYYCQHFWGTPYTFGQGT
- binding (feline TGFβ1 (feline)): binds
- binding (feline TGFβ2 (feline)): binds
- binding (feline TGFβ3 (feline)): binds

B8: fel04H09-23 (antibody, V domains shown)
VH: B2 VH with R13K, A42E, F45L, D77N, V93M, H109Q, T111A, I112L
VL: B2 VL
- binding (feline TGFβ1 (feline)): binds
- binding (feline TGFβ2 (feline)): binds
- binding (feline TGFβ3 (feline)): binds

B9: fel04H09-21 (antibody, V domains shown)
VH: B2 VH with R13K, G15E, L37V, D77N, A89T, T91M, H109Q, T111A, I112L
VL: B6 VL
- binding (feline TGFβ1 (feline)): binds
- binding (feline TGFβ2 (feline)): binds
- binding (feline TGFβ3 (feline)): binds

B10: fel04H09-24 (antibody, V domains shown)
VH: B2 VH with R13K, A42E, F45L, D77N, V93M, H109Q, T111A, I112L
VL: B6 VL
- binding (feline TGFβ1 (feline)): binds
- binding (feline TGFβ2 (feline)): binds

B11: canSL501 (caninized VH3/FW2/Q110D+VL2) (antibody, V domains shown)
VH: EVQLVESGGDLVKPGGSLRLSCVASGFTFSSYGMHWVRQAPGKELEWVAVISYDGSIKYYADAVKGRFTISRDNAKNTLYLQMNSLRAEDTAVYYCARTGEYSGYDTDPDYSWGQGTTVTVSS
VL: EIVMTQSPGSLAGSAGESVSINCRASQGIGDDLGWYQQKPGERPKLLIYGTSTLQSGVPARFSSSGSGTDFTLTINNLQAEDVGDYYCLQDSNYPLTFGAGTK
- binding [1]: binds

B12: Can04H09 VH1/VL3 (antibody, V domains shown)
VH: B14 VH with A8G, T30I, Q38R, E89G, T91I
VL: B14 VL with G16E, R39K, L73F
- binding (canine TGFβ3 (canine)): binds

B13: Can04H09 VH2/VL4 (antibody, V domains shown)
VH: B14 VH with T28S, A43K, T74K, A88S, T91A
VL: B14 VL
- binding (canine TGFβ3 (canine)): binds

B17: ZTS-426 Fab (Fab, V domains shown)
VH: B14 VH with A8G, T30I, Q38R, E89G, T91I
VL: B14 VL
- binding [2]: binds
